Measurements: patent publication US20230174624A1, “FERRITIN VARIANTS WITH INCREASED STABILITY, COMPLEXATION ABILITY AND TRANSFERRIN RECEPTOR AFFINITY” (CELLIS AG, priority 2020, published 2023)

Assay: Doxorubicin encapsulation (loading) efficiency
Format: physicochemical

Row | Substance | average doxorubicin molecules loaded per cage
1 | Q11E-Q15E: human H ferritin mutant Q11E Q15E (TRBD SEQ ID NO. 12); in examples 3-8 also K54E, K72E, K87Q, K144E, C91S, C103S (MTTASTSQVRENYHEDSEAA; listed as Homo sapiens) | 63 molecules
2 | Q11E: human H ferritin mutant Q11E (TRBD SEQ ID NO. 05); in examples 3-8 also K54E, K72E, K87Q, K144E, C91S, C103S, C131S (MTTASTSQVRENYHQDSEAA; listed as Homo sapiens) | 55 molecules
